These results are taken from PMC7819943, “Rice protein-binding microarrays: a tool to detect cis-acting elements near promoter regions in rice”.

Some of the results follow.

The target in this assay is T1, OsSMF1 (Oryza sativa, UniProt Q6ZLB0 1-436).
T1 sequence: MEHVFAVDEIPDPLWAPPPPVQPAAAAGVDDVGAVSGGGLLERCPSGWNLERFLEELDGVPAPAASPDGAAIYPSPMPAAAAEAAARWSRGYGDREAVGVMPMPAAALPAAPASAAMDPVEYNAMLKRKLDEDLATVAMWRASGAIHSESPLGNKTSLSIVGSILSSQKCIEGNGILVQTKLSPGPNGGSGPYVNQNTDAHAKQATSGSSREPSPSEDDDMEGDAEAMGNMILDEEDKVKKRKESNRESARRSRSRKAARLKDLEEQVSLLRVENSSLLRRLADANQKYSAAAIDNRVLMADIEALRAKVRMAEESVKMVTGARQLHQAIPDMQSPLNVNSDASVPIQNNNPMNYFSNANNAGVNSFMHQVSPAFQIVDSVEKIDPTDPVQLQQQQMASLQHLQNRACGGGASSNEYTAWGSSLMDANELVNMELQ
The experiment in a line: protein-binding microarray (RPBM); PBS, 2% BSA, 51.3 ng/ul salmon testes DNA, 50 uM zinc acetate, 200 nM TF, 25 C, 1 h; high values mean tight binding. Particulars: protein: recombinant; tags: N-terminal polyhistidine and DsRed monomer fusion (pET32a); chain copies: 2; label: CyDye5-dUTP incorporated in the synthesized complementary strand; 3' TTTTT single-stranded linker to array surface; dsDNA, one strand shown. The essentials: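 Binding signal here means per-feature fluorescence intensity in arbitrary units. The values were read on an Axon 4000B scanner after a custom Agilent array, double-stranded by primer extension with Cy5-dUTP, was incubated with 200 nM protein at 25 °C for 1 h in PBS with 2% BSA, salmon testes DNA and 50 µM zinc acetate, then washed. The proteins were transcription factors with an N-terminal polyhistidine tag and DsRed, expressed in E. coli BL21-CodonPlus and purified on Ni–NTA.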
As to “GTGTGTTATAGGAGACGCATTTATGGGTGTGGGTATGACTCGGAGTCACCTAGTGCAG”, the binding signal was 3650 fluorescence intensity (a.u.).
As to “CTGGGGTGCATCGTCAGCCAGCACTTCGAGCCACCTATGCCGGAGTCACCTAGTGCAG”, the binding signal was 5100 fluorescence intensity (a.u.).
On to “AATCTCCAACCCTTCACACTCTCCTCTCATCCACGTAAACCGGAGTCACCTAGTGCAG”, for which the binding signal was 4180 fluorescence intensity (a.u.).
In the case of “TTGCTACCTCATCTATCCCTTCCACCTCACTCTCACTGATCGGAGTCACCTAGTGCAG”, the binding signal is 4380 fluorescence intensity (a.u.).
In the case of “TGAACGAGAAGTGAGCGACTCTCGTTAAACGAACTGCGTTCGGAGTCACCTAGTGCAG”, the binding signal was 3580 fluorescence intensity (a.u.).
“AAATAATGTGGCCGGACGGGCGGTAGGGTCCTGGCAGCAGCGGAGTCACCTAGTGCAG”: the binding signal was 28000 fluorescence intensity (a.u.).
Consider “GGTTGGTGCTGTATTGTTTGAGGGGAGGGGATTCCATTTTCGGAGTCACCTAGTGCAG”, for which the binding signal was 5020 fluorescence intensity (a.u.).
For “GAGACGAGATCTTTCCGTCCAGGTGGCATCAGCGGATTGGCGGAGTCACCTAGTGCAG”, the binding signal is 4590 fluorescence intensity (a.u.).
As for “GAATGATGTTTTCGTGAAATCTGATGGAAAGCCGGTAGATCGGAGTCACCTAGTGCAG”, the figure is 7450 fluorescence intensity (a.u.); as for “ATATGGAGACAACACCGTACGATGACATTTACCTTGAGCCCGGAGTCACCTAGTGCAG”, 3520 fluorescence intensity (a.u.); as for “TTTTCATAAATGCTCCTTTGAAACAAATGATTTTACCCTACGGAGTCACCTAGTGCAG”, 43000 fluorescence intensity (a.u.).
Consider “AAAATCATGGTAACAAACAAATGCACACATATTGATACAACGGAGTCACCTAGTGCAG”, for which the binding signal was 20800 fluorescence intensity (a.u.).
“TATCGAGCTAGCTAGGCACAGAGCCATGGCGATGAGGTGGCGGAGTCACCTAGTGCAG”: the binding signal was 6060 fluorescence intensity (a.u.).
As to “TCGATCTACACATGCGGCTGTTCTTCGTTCGCGTCATTGTCGGAGTCACCTAGTGCAG”, the binding signal was 3500 fluorescence intensity (a.u.).
In the case of “ACGCAGAGGCCGCCGACGACAAGCCGCTCGCCGGGATCAGCGGAGTCACCTAGTGCAG”, the binding signal was 7920 fluorescence intensity (a.u.).
As for “GCAATGGTCACCTGATACGAAGTGAAACCACACCACACCACGGAGTCACCTAGTGCAG”, the figure is 3660 fluorescence intensity (a.u.); as for “ACTTAAAGCTGTCTTGGAATTTCGATGACGCGTGCCATTTCGGAGTCACCTAGTGCAG”, 5310 fluorescence intensity (a.u.); as for “GTATGTCGCTGAATTTAGACACCTCAACATCAAATACCATCGGAGTCACCTAGTGCAG”, 3900 fluorescence intensity (a.u.).
As for “TCATGTTGTTGCCACGCCGATATGCCTCCTCATGCGTATCCGGAGTCACCTAGTGCAG”, the figure is 6460 fluorescence intensity (a.u.); as for “GGACGCCGAGGCGCTGCTCGGCCACGCCCGCCTCGCCGCCCGGAGTCACCTAGTGCAG”, 4000 fluorescence intensity (a.u.); as for “AAGCACGACATAATATATGTACCGGCAGATCGACTCAGCTCGGAGTCACCTAGTGCAG”, 3780 fluorescence intensity (a.u.).
As for “ACATAGAGTTGGGTGTGTTAGATACGGGTAAAGCTCCATTCGGAGTCACCTAGTGCAG”, the figure is 17500 fluorescence intensity (a.u.); as for “CATCCAGACCATCCTGTCGGAGAAGAGCGGCAGGGTGACGCGGAGTCACCTAGTGCAG”, 3990 fluorescence intensity (a.u.); as for “GACCCGGAGGTCGCCGTTGTCGTTTCTCTCTCTTACCATGCGGAGTCACCTAGTGCAG”, 3470 fluorescence intensity (a.u.).
In the case of “CTCCTCTCCCGCGCGCCACGCCCTCCCTCCCCTTCCCCTTCGGAGTCACCTAGTGCAG”, the binding signal was 4060 fluorescence intensity (a.u.).
As for “TTTAGTTGGTGTACACGGTGTGTACACGTGAGGGCCTGTGCGGAGTCACCTAGTGCAG”, the figure is 6300 fluorescence intensity (a.u.); as for “AAAAGTAAAGAAACAGTTGCAACGTCACCAAACCGCCGATCGGAGTCACCTAGTGCAG”, 10300 fluorescence intensity (a.u.).
With “ACTTATCCAAATACAAATGACATGGACACGCAATTATCCTCGGAGTCACCTAGTGCAG”, the binding signal is 4590 fluorescence intensity (a.u.).
Regarding “CATCGTCCGAAGCCAGCCTTACGTGGTCGACATGCACGTCCGGAGTCACCTAGTGCAG”, the binding signal was 4320 fluorescence intensity (a.u.).
As for “TAGTTAGAGGTATCATCAGGGATGACATGCATACAATGTTCGGAGTCACCTAGTGCAG”, the figure is 3180 fluorescence intensity (a.u.).
With “TCCATGTATATTACATCATGGGGTTATGTAACATCACTGACGGAGTCACCTAGTGCAG”, the binding signal is 8280 fluorescence intensity (a.u.).
“CTGCGGCCGTTCTTTCCTTTTCGGTTTCATACGTGGGGTCCGGAGTCACCTAGTGCAG”: the binding signal is 5130 fluorescence intensity (a.u.).
With “CTTATCTAGATTCATTAACATCCGTATGAATGTGGAAAATCGGAGTCACCTAGTGCAG”, the binding signal is 3790 fluorescence intensity (a.u.).
As for “CCACACTTTTCTACTCTCATGGCCCACATGTCATACACTCCGGAGTCACCTAGTGCAG”, the figure is 3710 fluorescence intensity (a.u.).
As for “TGATTGAGCTGAGAGAGAGACGAGTGTGAGTGTGAGTCAGCGGAGTCACCTAGTGCAG”, the figure is 8420 fluorescence intensity (a.u.); as for “CTTGCTGTCTTCCTCCTGACGTGTCATCGTCGGCCTTGCTCGGAGTCACCTAGTGCAG”, 22900 fluorescence intensity (a.u.).
As for “TACGAAGCACGGCGACTTTAGCCTTCTCGAACACGTCGAACGGAGTCACCTAGTGCAG”, the figure is 4060 fluorescence intensity (a.u.); as for “TTAGTGTTAAAGCCGTGAAAAGAAAACACGTGTAAAATTTCGGAGTCACCTAGTGCAG”, 5990 fluorescence intensity (a.u.); as for “GCCTTGTTTATTAGTATTACCATGTGGCTGATGCAGCCTACGGAGTCACCTAGTGCAG”, 3700 fluorescence intensity (a.u.).
As for “AGTTTGGGTTTTCCGCTGACGTGGACTCCCACGTATTCTCCGGAGTCACCTAGTGCAG”, the binding signal was 16300 fluorescence intensity (a.u.).
As for “TGACGAGAGGTATATATTCCTGCAGAGAAGCAGTGCAAAACGGAGTCACCTAGTGCAG”, the figure is 35300 fluorescence intensity (a.u.); as for “GAGAACTGGCTGGTGTCCAATGACGCTGTCTGTTGCGATCCGGAGTCACCTAGTGCAG”, 3700 fluorescence intensity (a.u.).
